The campaign covered roughly 340,000 compounds. About 170 (0.05%) were called active. The shares of active, inactive and inconclusive entries below differ from those in the screen. Calls come from the whole dose curve; as a rule, active = well fitted inhibition curve with a large enough effect in the signal ratio, with a control signal flat (not every such curve was filed as active); inconclusive = small, poorly fitted or top-dose-only effect, or effect the other way, or a change in a side signal; inactive = flat fitted curve, though single readings scatter; the % refers to the signal ratio. A potency beside an inconclusive call is a rough fit, not a confirmed value.
Assay: qHTS Assay to Find Inhibitors of Chronic Active B-Cell Receptor Signaling;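 for activity change, negative = inhibition: plate controls were basal doxycycline-induced cells for no effect and cells given 10 µM MG132 for full effect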
Details: ABC-DLBCL IkBa-CBG/CBR reporter, luminescence ratio (green luciferase fused to IkBa over red control in TMD8 lymphoma cells), 4 h; activity change, negative = inhibition: at 46.1 µM (top of the series)
Method in brief: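 Doxycycline induced both beetle luciferases in TMD8 lymphoma cells; IKK-driven degradation limits the IkappaBalpha-fused green signal, while red luminescence normalises for cell number and nonspecific effects. Compounds tested up to 46 uM, 4 hrs.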
Potency is the fitted concentration of half-maximal effect.

Question: Which Potency does the source give for CCOC(=O)C1=NN(C(=O)c2ccccc2)C(O)(c2ccc(C)cc2)C1 (stereo not drawn) here?
Answer: inconclusive: 20.6 µM [falling, single point]

Question: For N#CC1=C(N)OC2=C(CN(Cc3ccccc3)C/C2=C\c2cccnc2)C1c1cccnc1 (stereo not drawn), which Potency is on record?
Answer: inconclusive: 25.9 µM [falling, single point]

Question: With Cc1cccc(NC(=S)NCCc2c[nH]c3ccccc23)c1 as the molecule, how does the activity change, negative = inhibition read?
Answer: inactive

Question: With O=C(/C=C/NNC(=O)c1ccc(Cl)cc1)c1ccccc1 as the molecule, how does the Potency read?
Answer: inconclusive: 11.2 µM [falling, partial curve]

Question: Which activity change, negative = inhibition does the source give for COc1ccc(CCNC(=O)c2cccc(S(=O)(=O)N3CCc4ccccc4C3)c2)cc1 here?
Answer: inactive

Question: With Cc1ccc(N2CN=c3s/c(=C\c4cccnc4)c(=O)n3C2)cc1 as the molecule, how does the activity change, negative = inhibition read?
Answer: inconclusive: -1.01%

Question: Which activity change, negative = inhibition does the source give for CCC(=O)Nc1ccc(C(=O)Nc2cccc(C)n2)cc1 here?
Answer: inconclusive: -14.9%

Question: For O=C(Nc1ccccc1N1CCOCC1)c1ccccc1NS(=O)(=O)c1ccc(F)cc1, which activity change, negative = inhibition is on record?
Answer: inconclusive: 7.77%

Question: Which activity change, negative = inhibition does the source give for O=C(N/N=C/c1ccco1)c1cc(-c2ccc(Br)s2)[nH]n1 here?
Answer: inactive

Question: With C=CCN=C(NC#N)SCc1ccccc1 as the molecule, how does the activity change, negative = inhibition read?
Answer: inactive

Question: Which Potency does the source give for Cc1ccc(S(=O)(=O)N[C@@H](Cc2ccccc2)C(=O)CCl)cc1 here?
Answer: inconclusive: 29.1 µM [falling, single point]

Question: For O=C1c2ccccc2NC(c2ccc(-c3cccc(Cl)c3)o2)N1O (stereo not drawn), which Potency is on record?
Answer: inconclusive: 29.1 µM [falling, single point]

Question: With CC(C)c1nc(SCC(=O)Nc2nccs2)c2ccccc2n1 as the molecule, how does the Potency read?
Answer: inconclusive: 2.24 µM [falling, full curve]

Question: Which activity change, negative = inhibition does the source give for N#C/C=C(/N)N1CCN(c2ccc(Cl)c(Cl)c2)CC1 here?
Answer: inconclusive: 4.47%

Question: For CCCOc1cc(C)c(Cl)cc1S(=O)(=O)N(CC)CC, which activity change, negative = inhibition is on record?
Answer: inactive

Question: Which Potency does the source give for Cc1nc(N)sc1C(=O)N/N=C/c1ccco1 here?
Answer: inconclusive: 11.2 µM [falling, partial curve, poor fit]

Question: For COc1ccccc1N=C1SC(C(=O)Nc2cccc(Cl)c2Cl)C(N)=C1C(N)=O (stereo not drawn), which activity change, negative = inhibition is on record?
Answer: inconclusive: -2.9%

Question: Which activity change, negative = inhibition does the source give for Cc1ccc(/C=N/NC(=S)NCCc2ccccc2)s1 here?
Answer: inconclusive: 1.34%

Question: With O=C(CN1CCCCCC1)Nc1ccc(Cl)cn1 as the molecule, how does the activity change, negative = inhibition read?
Answer: inconclusive: -26.3%

Question: Which Potency does the source give for O=C(CCCN1C(=O)/C(=C/c2ccco2)SC1=S)Nc1cccc(C(=O)O)c1 here?
Answer: inconclusive: 35.5 µM [rising, partial curve, poor fit]

Question: For CCOC(=O)c1c(S(=O)(=O)N2CCCC(C(=O)Nc3ncccc3C)C2)c(C)n(C)c1C (stereo not drawn), which activity change, negative = inhibition is on record?
Answer: inconclusive: 15.8%

Question: Which activity change, negative = inhibition does the source give for CCCCCc1nnc(N)s1 here?
Answer: inconclusive: 7.56%

Question: With COC1=C(OC)c2ccccc2C(C(=O)O)N/C1=C(/C)Nc1ccncc1 (stereo not drawn) as the molecule, how does the activity change, negative = inhibition read?
Answer: inconclusive: -17.5%

Question: Which activity change, negative = inhibition does the source give for CCCn1c(SCC(=O)Nc2ccccc2Cl)n[nH]c1=O here?
Answer: inconclusive: -11.4%

Question: With O=C(Nc1cccnc1)C1CC(=O)N(c2ccc(F)cc2)C1 (stereo not drawn) as the molecule, how does the activity change, negative = inhibition read?
Answer: inconclusive: -5.23%

Question: Which activity change, negative = inhibition does the source give for O=c1c(Cl)c(O)c2cccc3c4ccccc4n1c23 here?
Answer: inactive

Question: Which activity change, negative = inhibition does the source give for Cc1nn(-c2ccc(F)cc2)c(Cl)c1/C=C(\CC(=O)O)c1nc2ccccc2s1 here?
Answer: inconclusive: 22%

Question: Which activity change, negative = inhibition does the source give for O=C(NCC(c1cccs1)S(=O)(=O)c1cccs1)c1ccc(C(F)(F)F)cc1 (stereo not drawn) here?
Answer: inactive

Question: Which activity change, negative = inhibition does the source give for O=C(COC(=O)C1CCN(c2ccc(C(F)(F)F)cn2)CC1)Nc1cc(F)ccc1F here?
Answer: inconclusive: 6.61%

Question: For Cc1ccc(C(CC(=O)O)Nc2nc(N3CCOCC3)nc(N3CCOCC3)n2)cc1 (stereo not drawn), which activity change, negative = inhibition is on record?
Answer: inactive

Question: With CCOC(=O)C1CCN(S(=O)(=O)NC[C@H]2O[C@@H](n3cnc4c(N)ncnc43)[C@H](O)[C@@H]2O)C1 (stereo partly drawn) as the molecule, how does the activity change, negative = inhibition read?
Answer: inconclusive: -3.06%

Question: With Cc1ccc(-n2ncc3c(N(CCO)Cc4ccccc4)ncnc32)cc1 as the molecule, how does the activity change, negative = inhibition read?
Answer: inconclusive: 6.78%

Question: With COc1ccccc1N1CCN(C(=O)c2ccc(N3CCCCS3(=O)=O)cc2)CC1 as the molecule, how does the activity change, negative = inhibition read?
Answer: inactive

Question: With O=C(NNC(=O)C1CCN(S(=O)(=O)c2ccc(Cl)cc2)CC1)c1ccccc1O as the molecule, how does the activity change, negative = inhibition read?
Answer: inactive

Question: For COc1ccc(OCc2cc(C(=O)NCCc3ccccc3)no2)c(Cl)c1, which activity change, negative = inhibition is on record?
Answer: inactive

Question: Which Potency does the source give for O=C(N/N=C1\CCCc2ccccc21)c1ccccc1Cl here?
Answer: inconclusive: 25.1 µM [falling, single point]

Question: Which Potency does the source give for CCCOc1cccc(C(=O)Nc2nnn(CCC)n2)c1 here?
Answer: inconclusive: 14.1 µM [falling, partial curve]

Question: With Cc1cc(S(=O)(=O)NCCCN2CCOCC2)ccc1F as the molecule, how does the activity change, negative = inhibition read?
Answer: inactive

Question: For CCOC(=O)c1c(/N=C/c2ccc(C)cc2O)sc2c1CCN(C)C2, which activity change, negative = inhibition is on record?
Answer: inconclusive: -1.56%

Question: With Cc1ccc(C(=O)c2cn(-c3ccc(F)c(Cl)c3)nn2)cc1 as the molecule, how does the activity change, negative = inhibition read?
Answer: inconclusive: 15.4%

Question: Which activity change, negative = inhibition does the source give for CCOC(=O)C1(Cc2cccc(OC)c2)CCCN(Cc2nccn2CC)C1 (stereo not drawn) here?
Answer: inactive

Question: With COCCNC(=O)c1cccc(OC2CCN(Cc3ccccc3OC(F)F)CC2)c1 as the molecule, how does the activity change, negative = inhibition read?
Answer: inactive

Question: With Cc1ccc(SCCC(=O)OCC(=O)NCC2CCCCC2)cc1 as the molecule, how does the activity change, negative = inhibition read?
Answer: inactive

Question: Which activity change, negative = inhibition does the source give for COc1ccc(S(=O)(=O)N2CCN(C(=O)N3CCOCC3)C2C)cc1 (stereo not drawn) here?
Answer: inactive

Question: For COc1ccc(NC(=O)N(C)C[C@H]2Oc3c(NC(=O)c4ccncc4)cccc3C(=O)N([C@H](C)CO)C[C@@H]2C)cc1, which activity change, negative = inhibition is on record?
Answer: inconclusive: 0.119%

Question: For COC(=O)[C@@H]1Cc2c([nH]c3ccccc23)C(C)(C)N1C(=O)CCl, which Potency is on record?
Answer: inconclusive: 28.2 µM [falling, single point]

Question: For COc1ccc(NC(=O)CN2C(=O)c3ccccc3S2(=O)=O)cc1OC, which activity change, negative = inhibition is on record?
Answer: inactive

Question: Which activity change, negative = inhibition does the source give for O=C(NC1CCCN(Cc2ccc(Cl)cc2)C1)c1ccnc(Cl)c1 (stereo not drawn) here?
Answer: inconclusive: -17.4%

Question: With COc1ccccc1C(=O)NNC(=O)C(=O)NC(C)(C)C as the molecule, how does the Potency read?
Answer: inconclusive: 15.8 µM [falling, single point]

Question: Which activity change, negative = inhibition does the source give for Cc1ccc(C)c(S(=O)(=O)/N=C2\C=C(NS(=O)(=O)c3ccccc3)C(=O)c3ccccc32)c1 here?
Answer: inconclusive: 0%

Question: For CCOC(=O)c1csc(NC(=O)c2cc3ccccc3o2)n1, which Potency is on record?
Answer: inconclusive: 35.5 µM [falling, single point]

Question: For COc1ccc(Cc2nc3ccc(C(=O)N4CCC(N(C)C)C4)cc3o2)cc1 (stereo not drawn), which activity change, negative = inhibition is on record?
Answer: inconclusive: 10.2%

Question: Which activity change, negative = inhibition does the source give for O=C(O)c1ccccc1SC1CC(=O)N(C2CCCCC2)C1=O (stereo not drawn) here?
Answer: inconclusive: -15.1%

From PubChem BioAssay AID493014 (National Center for Advancing Translational Sciences (NCATS), 2011)
